According to the odorant receptor screen of Mainland et al. (2015):
Values joined by “and” are separate entries in the source; they are usually repeats but may differ in a detail not shown here. Equal values may be shown once. This is one part of the list. Single wells; the ratio to wells without odorant was worked out here, and repeats agree poorly.

What follows are molecules tested on OR13C5 S18F/L69M/P79S/L86V/N128S/M258T clone 1477 (assay: odorant receptor activation (CRE luciferase / Renilla) (fold of no-odor wells); higher = more activation). Conditions: 100 µM.

Compound | odorant receptor activation
CCCCCC(=O)O [caproic acid] | 0.809
C=C(C)C1CC=CCC1 (configuration not stated) [r-limonene] | 1.04 and 0.368 and 0.635
CC1CCC(C(C)C)C(O)C1 (single isomer, unassigned; (+)) [(+)-menthol] | 1.25
O=C1CCCCC1 [Cyclohexanone] | 0.391 and 0.781
CC(=O)c1ccccc1 [acetophenone] | 0.792 and 0.76
COC(=O)c1ccccc1 [methyl benzoate] | 0.388 and 0.715
O=CCc1ccccc1 [phenyl acetaldehyde] | 1.1
C=CC(C)(O)CCC=C(C)C (configuration not stated) [linalool] | 0.969
CCCCO [1-butanol] | 1.06
CC/C=C\CCO [cis-3-hexen-1-ol] | 0.766
CC1=CCC(C(C)(C)O)CC1 (configuration not stated) [terpineol] | 0.812
CC(C)CCC(=O)O [4-methylvaleric acid] | 0.993
CC1CCC(C(C)C)C(O)C1 (single isomer, unassigned; (-)) [(-)-menthol] | 3.72
CC(C)(C)c1ccc(CCC=O)cc1 [bourgeonal] | 0.968
CCCCCCCCOC(C)=O [octyl acetate] | 1.06
CC1=NC(C)SC1C (configuration not stated) | 0.903 and 0.893
CC12C=CCC1C1CCC3CC(=O)CCC3(C)C1CC2 (configuration not stated) [androstenone] | 1.2
C=C(C)C1CC=C(C)C(=O)C1 (configuration not stated) [r-carvone] | 0.991
CC12C=CCC1C1CCC3=CC(=O)CCC3(C)C1CC2 (configuration not stated) [androstadienone] | 0.905 and 1.36
CCCCCCCOC(C)=O [heptyl acetate] | 0.837 and 1.17
CC(C)C=O [isobutyraldehyde] | 1.01 and 0.937
CC=Cc1ccc(O)c(OC)c1 [isoeugenol] | 0.888 and 1.98
CCCC(=O)O [butyric acid] | 0.794
CCCCCC(C)=O [2-heptanone] | 0.739 and 0.544
CCCCCCCC=CC=O [2-decenal] | 1.55

Each molecule was assayed on OR13C7 Indel clone 1100 in the same assay as above. Conditions: 100 µM.

Compound | odorant receptor activation
CCCCCC(=O)O [caproic acid] | 1.19
C=C(C)C1CC=CCC1 (configuration not stated) [r-limonene] | 0.87 and 1.14
CC1CCC(C(C)C)C(O)C1 (single isomer, unassigned; (+)) [(+)-menthol] | 11.3
O=C1CCCCC1 [Cyclohexanone] | 0.756
CC(=O)c1ccccc1 [acetophenone] | 0.871
COC(=O)c1ccccc1 [methyl benzoate] | 1.15
O=CCc1ccccc1 [phenyl acetaldehyde] | 1.05
C=CC(C)(O)CCC=C(C)C (configuration not stated) [linalool] | 1.18
CCCCO [1-butanol] | 12.8
CC/C=C\CCO [cis-3-hexen-1-ol] | 0.954
CC1=CCC(C(C)(C)O)CC1 (configuration not stated) [terpineol] | 0.911
CC(C)CCC(=O)O [4-methylvaleric acid] | 6.86
CC1COCc2cc3c(cc21)C(C)(C)C(C)C3(C)C (configuration not stated) [galaxolide] | 1.78
CC1CCC(C(C)C)C(O)C1 (single isomer, unassigned; (-)) [(-)-menthol] | 10.6
CC(C)(C)c1ccc(CCC=O)cc1 [bourgeonal] | 0.795
CCCCCCCCOC(C)=O [octyl acetate] | 1.12
CC1=NC(C)SC1C (configuration not stated) | 0.582
CC12C=CCC1C1CCC3CC(=O)CCC3(C)C1CC2 (configuration not stated) [androstenone] | 7.87
C=C(C)C1CC=C(C)C(=O)C1 (configuration not stated) [r-carvone] | 0.714
CC12C=CCC1C1CCC3=CC(=O)CCC3(C)C1CC2 (configuration not stated) [androstadienone] | 0.642
CCCCCCCOC(C)=O [heptyl acetate] | 0.818
CC(C)C=O [isobutyraldehyde] | 1.14
CC=Cc1ccc(O)c(OC)c1 [isoeugenol] | 1.06
CCCC(=O)O [butyric acid] | 1.27
CCCCCC(C)=O [2-heptanone] | 0.964
CCCCCCC=O [heptaldehyde] | 0.842 and 0.718
CCCCCCCC=CC=O [2-decenal] | 13.7
